No constants are given. Whether binding was seen depends on the method and setting. Binding seen in cells or lysates may run through a third protein. Some results given as binding are weak or reduced against the parent protein; the word gives no strength.
Target: SMAD1 (human (endogenous in H9 hESCs)) (UniProt Q15797)
Assay: co-IP; nuclear extracts of hESCs differentiated in FLyA (SMAD2/3 pulldown) or FLyB (SMAD1 pulldown); western blot for BRA and EOMES; IgG as negative control; details in the supplementary methods

Amino acid sequences for entries named in this document (tags omitted).
UniProt Q15797: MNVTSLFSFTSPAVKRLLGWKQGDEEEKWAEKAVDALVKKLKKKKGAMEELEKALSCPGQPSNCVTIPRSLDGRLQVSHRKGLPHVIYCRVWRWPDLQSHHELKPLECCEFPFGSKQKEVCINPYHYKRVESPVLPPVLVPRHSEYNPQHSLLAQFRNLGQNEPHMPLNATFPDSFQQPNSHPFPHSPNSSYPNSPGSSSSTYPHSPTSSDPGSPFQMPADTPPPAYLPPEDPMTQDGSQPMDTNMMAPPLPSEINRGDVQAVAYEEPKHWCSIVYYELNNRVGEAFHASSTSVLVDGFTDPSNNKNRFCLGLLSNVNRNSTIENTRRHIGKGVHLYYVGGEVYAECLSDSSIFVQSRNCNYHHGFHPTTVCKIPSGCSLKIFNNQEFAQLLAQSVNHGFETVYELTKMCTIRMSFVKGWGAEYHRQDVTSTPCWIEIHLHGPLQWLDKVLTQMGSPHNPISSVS

| Binder | binding |
| --- | --- |
| brachyury (T, BRA) (protein, UniProt O15178 1-435) MSSPGTESAGKSLQYRVDHLLSAVENELQAGSEKGDPTERELRVGLEESELWLRFKELTNEMIVTKNGRRMFPVLKVNVSGLDPNAMYSFLLDFVAADNHRWKYVNGEWVPGGKPEPQAPSCVYIHPDSPNFGAHWMKAPVSFSKVKLTNKLNGGGQIMLNSLHKYEPRIHIVRVGGPQRMITSHCFPETQFIAVTAYQNEEITALKIKYNPFAKAFLDAKERSDHKEMMEEPGDSQQPGYSQWGWLLPGTSTLCPPANPHPQFGGALSLPSTHSCDRYPTLRSHRSSPYPSPYAHRNNSPTYSDNSPACLSMLQSHDNWSSLGMPAHPSMLPVSHNASPPTSSSQYPSLWSVSNGAVTPGSQAAAVSNGLGAQFFRGSPAHYTPLTHPVSAPSSSGSPLYEGAAAATDIVDSQYDAAAQGRLIASWTPVSPPSM | binds |
| eomesodermine (EOMES) (protein, UniProt O95936 1-686) MQLGEQLLVSSVNLPGAHFYPLESARGGSGGSAGHLPSAAPSPQKLDLDKASKKFSGSLSCEAVSGEPAAASAGAPAAMLSDTDAGDAFASAAAVAKPGPPDGRKGSPCGEEELPSAAAAAAAAAAAAAATARYSMDSLSSERYYLQSPGPQGSELAAPCSLFPYQAAAGAPHGPVYPAPNGARYPYGSMLPPGGFPAAVCPPGRAQFGPGAGAGSGAGGSSGGGGGPGTYQYSQGAPLYGPYPGAAAAGSCGGLGGLGVPGSGFRAHVYLCNRPLWLKFHRHQTEMIITKQGRRMFPFLSFNINGLNPTAHYNVFVEVVLADPNHWRFQGGKWVTCGKADNNMQGNKMYVHPESPNTGSHWMRQEISFGKLKLTNNKGANNNNTQMIVLQSLHKYQPRLHIVEVTEDGVEDLNEPSKTQTFTFSETQFIAVTAYQNTDITQLKIDHNPFAKGFRDNYDSSHQIVPGGRYGVQSFFPEPFVNTLPQARYYNGERTVPQTNGLLSPQQSEEVANPPQRWLVTPVQQPGTNKLDISSYESEYTSSTLLPYGIKSLPLQTSHALGYYPDPTFPAMAGWGGRGSYQRKMAAGLPWTSRTSPTVFSEDQLSKEKVKEEIGSSWIETPPSIKSLDSNDSGVYTSACKRRRLSPSNSSNENSPSIKCEDINAEEYSKDTSKGMGGYYAFYTTP | binds |
